The record followed here is paper PMC10920779, “Targeting P2Y14R protects against necroptosis of intestinal epithelial cells through PKA/CREB/RIPK1 axis in ulcerative colitis” (Nature Communications, 2024).

Chains of the proteins cited; added tags and fusions are not shown.
UniProt Q13546: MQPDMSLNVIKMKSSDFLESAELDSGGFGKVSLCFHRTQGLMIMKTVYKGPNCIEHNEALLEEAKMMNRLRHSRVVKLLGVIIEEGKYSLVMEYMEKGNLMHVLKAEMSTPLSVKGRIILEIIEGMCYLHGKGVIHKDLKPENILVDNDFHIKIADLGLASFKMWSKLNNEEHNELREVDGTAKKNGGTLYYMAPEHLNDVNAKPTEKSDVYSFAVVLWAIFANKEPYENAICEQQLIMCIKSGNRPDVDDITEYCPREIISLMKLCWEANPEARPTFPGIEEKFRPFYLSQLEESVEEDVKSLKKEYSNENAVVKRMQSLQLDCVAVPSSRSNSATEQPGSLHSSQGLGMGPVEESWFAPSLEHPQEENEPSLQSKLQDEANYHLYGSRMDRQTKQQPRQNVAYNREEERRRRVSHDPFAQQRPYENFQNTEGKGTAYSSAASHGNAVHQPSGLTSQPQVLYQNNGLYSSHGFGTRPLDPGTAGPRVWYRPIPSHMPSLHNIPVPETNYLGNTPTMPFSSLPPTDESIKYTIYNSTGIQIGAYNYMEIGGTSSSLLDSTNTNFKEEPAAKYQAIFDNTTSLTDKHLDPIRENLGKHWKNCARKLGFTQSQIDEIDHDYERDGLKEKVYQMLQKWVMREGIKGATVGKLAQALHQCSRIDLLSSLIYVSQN
UniProt Q9Y572: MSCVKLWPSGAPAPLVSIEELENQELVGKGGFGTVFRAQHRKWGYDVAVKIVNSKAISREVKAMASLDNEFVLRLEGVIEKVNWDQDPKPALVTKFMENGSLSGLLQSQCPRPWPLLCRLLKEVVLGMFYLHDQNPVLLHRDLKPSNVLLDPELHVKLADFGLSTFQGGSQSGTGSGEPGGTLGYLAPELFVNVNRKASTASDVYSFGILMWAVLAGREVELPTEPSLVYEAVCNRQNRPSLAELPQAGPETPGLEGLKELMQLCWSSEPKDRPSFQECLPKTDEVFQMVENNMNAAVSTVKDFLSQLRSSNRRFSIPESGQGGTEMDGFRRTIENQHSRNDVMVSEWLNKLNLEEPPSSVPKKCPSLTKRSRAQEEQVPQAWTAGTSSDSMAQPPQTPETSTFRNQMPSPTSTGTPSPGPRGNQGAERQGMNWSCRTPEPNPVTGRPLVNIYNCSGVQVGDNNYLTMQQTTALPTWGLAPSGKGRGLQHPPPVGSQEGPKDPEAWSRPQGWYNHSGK

These are yes or no findings as the source states them, for the method shown. Binding seen in cells or lysates may run through a third protein. Some entries that bind do so weakly or less than the wild type.

This experiment concerns the target receptor-interacting protein kinase 1 (UniProt Q13546). As to the kind of experiment: co-IP; cell lysate; anti-RIPK1 antibody (1:200) or control IgG with protein A/G agarose beads, 4 °C overnight, washed 3 times in lysis buffer, then immunoblotting; cells with or without silencing of P2Y14R. For orientation: Immunoblotting shows a protein as a band on a membrane.

On to “receptor-interacting protein kinase 3 (from UniProt Q9Y572 1-518)”, for which the binding entry is given as “binds”.
